Source: patent US20210388068A1
These are yes or no findings as the source states them, for the method shown. Binding calls can cover weak binding; strength is not graded here.

Target: MBP-CfaE-N Tyr183Ala mutant (enterotoxigenic Escherichia coli)
Test: ELISA on plate-bound MBP-CfaE-N Tyr183Ala mutant, OD405

B1: anti-CfaE HuMab 68-48 (antibody, human IgG1, V domains shown)
VH: QVQLQQWGAGLLKPSETLSLTCAVYGGSFSGYSWSWIRQSPGKGLEWIGEIYHSGSTNYNPSLKSRVTISGDTSKNQFSLKLSSVTAADTAVYYCARENLQGYYYYGMDVWGQGTTVTVSS
VL: AIQLTQSPSSLSASVGDRVTITCRASQGISSSLAWYQQKPGKAPKLLIYDASSLESGVPSRFSGSGSGTDFTLTISSLQPEDFATYYCQQFNSYPRTFGQGTKVEIK
binding: binds
